# Data published in the supplement of paper PMC5836539.
# The chains behind the UniProt entries cited, without tags or fusion partners. Where a name states a change or a piece, a line headed by the entry shows the natural chain unless it says otherwise.
# UniProt Q92769, whole entry, looked up: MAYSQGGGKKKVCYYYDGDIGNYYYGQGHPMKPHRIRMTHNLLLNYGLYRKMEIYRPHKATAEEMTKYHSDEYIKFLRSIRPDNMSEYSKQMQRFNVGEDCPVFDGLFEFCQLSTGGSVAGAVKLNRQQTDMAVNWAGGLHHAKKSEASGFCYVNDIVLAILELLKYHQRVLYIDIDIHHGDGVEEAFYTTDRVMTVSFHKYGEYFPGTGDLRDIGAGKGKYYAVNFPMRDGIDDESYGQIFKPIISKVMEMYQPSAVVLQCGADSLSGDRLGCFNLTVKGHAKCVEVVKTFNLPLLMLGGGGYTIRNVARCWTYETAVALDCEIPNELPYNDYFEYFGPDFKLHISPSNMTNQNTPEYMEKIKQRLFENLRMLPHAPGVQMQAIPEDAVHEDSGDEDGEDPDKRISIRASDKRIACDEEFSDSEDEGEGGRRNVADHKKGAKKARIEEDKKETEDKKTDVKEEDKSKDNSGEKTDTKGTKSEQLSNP
# UniProt Q92890: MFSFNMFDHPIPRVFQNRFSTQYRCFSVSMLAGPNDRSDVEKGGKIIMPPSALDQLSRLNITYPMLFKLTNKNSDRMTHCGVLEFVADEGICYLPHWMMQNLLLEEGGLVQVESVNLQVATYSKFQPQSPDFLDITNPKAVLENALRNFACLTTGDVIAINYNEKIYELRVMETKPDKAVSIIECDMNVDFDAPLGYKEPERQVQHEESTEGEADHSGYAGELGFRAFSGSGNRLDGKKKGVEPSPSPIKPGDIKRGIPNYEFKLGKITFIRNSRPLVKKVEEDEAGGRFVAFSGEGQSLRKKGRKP
# UniProt Q93008, whole entry, looked up: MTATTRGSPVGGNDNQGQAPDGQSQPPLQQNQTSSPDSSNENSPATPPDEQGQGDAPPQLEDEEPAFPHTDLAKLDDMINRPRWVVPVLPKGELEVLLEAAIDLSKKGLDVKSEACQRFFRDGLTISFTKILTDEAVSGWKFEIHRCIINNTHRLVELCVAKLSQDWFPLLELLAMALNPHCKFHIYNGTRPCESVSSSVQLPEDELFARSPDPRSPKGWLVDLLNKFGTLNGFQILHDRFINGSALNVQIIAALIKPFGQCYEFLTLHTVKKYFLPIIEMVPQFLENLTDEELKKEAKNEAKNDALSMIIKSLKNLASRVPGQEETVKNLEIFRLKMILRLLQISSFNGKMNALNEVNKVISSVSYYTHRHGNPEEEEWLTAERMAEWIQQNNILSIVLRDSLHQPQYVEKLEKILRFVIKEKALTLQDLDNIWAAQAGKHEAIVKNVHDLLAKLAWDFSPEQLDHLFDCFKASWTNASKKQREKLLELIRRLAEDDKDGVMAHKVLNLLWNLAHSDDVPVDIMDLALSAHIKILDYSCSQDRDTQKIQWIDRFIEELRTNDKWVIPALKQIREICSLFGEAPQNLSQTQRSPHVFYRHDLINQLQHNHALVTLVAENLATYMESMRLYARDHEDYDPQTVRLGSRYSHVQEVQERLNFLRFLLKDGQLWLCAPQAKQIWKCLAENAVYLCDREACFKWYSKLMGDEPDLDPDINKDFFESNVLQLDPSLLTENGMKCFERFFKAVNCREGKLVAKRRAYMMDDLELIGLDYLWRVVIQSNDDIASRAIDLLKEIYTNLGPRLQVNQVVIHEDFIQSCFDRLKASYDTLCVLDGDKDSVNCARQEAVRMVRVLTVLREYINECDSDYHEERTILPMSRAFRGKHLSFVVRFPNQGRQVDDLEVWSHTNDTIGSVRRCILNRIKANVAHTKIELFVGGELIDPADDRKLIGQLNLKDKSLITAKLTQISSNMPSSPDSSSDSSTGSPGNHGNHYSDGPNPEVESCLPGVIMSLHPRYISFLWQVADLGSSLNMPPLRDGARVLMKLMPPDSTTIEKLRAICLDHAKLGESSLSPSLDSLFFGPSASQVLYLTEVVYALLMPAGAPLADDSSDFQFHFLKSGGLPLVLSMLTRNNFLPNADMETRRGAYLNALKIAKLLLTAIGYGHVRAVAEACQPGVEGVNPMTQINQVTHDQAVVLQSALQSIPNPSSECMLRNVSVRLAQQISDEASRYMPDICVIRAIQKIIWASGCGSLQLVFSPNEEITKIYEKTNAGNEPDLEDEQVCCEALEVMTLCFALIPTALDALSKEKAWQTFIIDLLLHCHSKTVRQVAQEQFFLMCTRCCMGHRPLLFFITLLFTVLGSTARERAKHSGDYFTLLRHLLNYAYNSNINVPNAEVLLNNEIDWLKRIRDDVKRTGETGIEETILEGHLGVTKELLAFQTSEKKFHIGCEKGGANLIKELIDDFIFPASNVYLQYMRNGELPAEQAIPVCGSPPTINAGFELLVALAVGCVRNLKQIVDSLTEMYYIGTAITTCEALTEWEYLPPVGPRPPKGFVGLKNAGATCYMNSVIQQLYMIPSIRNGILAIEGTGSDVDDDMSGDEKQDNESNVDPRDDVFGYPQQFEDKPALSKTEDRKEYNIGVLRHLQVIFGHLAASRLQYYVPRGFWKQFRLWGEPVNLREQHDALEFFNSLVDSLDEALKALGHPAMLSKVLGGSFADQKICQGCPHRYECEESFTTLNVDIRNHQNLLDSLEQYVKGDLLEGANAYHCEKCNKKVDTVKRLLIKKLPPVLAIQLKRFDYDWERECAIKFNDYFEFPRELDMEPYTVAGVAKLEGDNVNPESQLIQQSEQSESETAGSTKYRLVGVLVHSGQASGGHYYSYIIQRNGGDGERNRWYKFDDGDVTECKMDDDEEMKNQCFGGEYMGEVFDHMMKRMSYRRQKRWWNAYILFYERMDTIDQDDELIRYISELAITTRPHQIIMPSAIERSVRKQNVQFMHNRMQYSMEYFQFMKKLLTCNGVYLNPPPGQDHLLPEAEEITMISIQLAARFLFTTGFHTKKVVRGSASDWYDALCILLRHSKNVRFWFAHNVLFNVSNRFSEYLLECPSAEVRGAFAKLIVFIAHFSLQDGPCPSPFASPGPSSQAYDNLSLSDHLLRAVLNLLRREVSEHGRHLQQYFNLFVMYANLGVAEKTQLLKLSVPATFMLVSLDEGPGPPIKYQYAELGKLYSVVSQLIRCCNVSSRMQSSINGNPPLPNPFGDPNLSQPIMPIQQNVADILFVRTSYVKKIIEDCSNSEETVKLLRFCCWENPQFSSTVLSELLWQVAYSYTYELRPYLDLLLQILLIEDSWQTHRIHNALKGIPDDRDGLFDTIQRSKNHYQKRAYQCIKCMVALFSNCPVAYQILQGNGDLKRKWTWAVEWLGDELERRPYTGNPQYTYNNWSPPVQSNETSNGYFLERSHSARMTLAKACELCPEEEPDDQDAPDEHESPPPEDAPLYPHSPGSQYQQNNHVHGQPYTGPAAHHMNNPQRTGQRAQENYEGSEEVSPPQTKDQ
# UniProt P67809, whole entry, looked up: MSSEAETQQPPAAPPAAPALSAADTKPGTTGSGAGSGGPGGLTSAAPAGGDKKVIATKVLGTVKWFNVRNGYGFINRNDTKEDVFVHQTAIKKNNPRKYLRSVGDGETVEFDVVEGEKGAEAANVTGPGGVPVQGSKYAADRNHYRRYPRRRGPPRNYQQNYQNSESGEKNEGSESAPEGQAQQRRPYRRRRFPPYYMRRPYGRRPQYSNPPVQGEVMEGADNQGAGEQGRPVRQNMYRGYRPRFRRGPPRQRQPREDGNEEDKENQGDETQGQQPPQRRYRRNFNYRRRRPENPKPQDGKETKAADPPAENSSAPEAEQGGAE
# UniProt Q9UKV3: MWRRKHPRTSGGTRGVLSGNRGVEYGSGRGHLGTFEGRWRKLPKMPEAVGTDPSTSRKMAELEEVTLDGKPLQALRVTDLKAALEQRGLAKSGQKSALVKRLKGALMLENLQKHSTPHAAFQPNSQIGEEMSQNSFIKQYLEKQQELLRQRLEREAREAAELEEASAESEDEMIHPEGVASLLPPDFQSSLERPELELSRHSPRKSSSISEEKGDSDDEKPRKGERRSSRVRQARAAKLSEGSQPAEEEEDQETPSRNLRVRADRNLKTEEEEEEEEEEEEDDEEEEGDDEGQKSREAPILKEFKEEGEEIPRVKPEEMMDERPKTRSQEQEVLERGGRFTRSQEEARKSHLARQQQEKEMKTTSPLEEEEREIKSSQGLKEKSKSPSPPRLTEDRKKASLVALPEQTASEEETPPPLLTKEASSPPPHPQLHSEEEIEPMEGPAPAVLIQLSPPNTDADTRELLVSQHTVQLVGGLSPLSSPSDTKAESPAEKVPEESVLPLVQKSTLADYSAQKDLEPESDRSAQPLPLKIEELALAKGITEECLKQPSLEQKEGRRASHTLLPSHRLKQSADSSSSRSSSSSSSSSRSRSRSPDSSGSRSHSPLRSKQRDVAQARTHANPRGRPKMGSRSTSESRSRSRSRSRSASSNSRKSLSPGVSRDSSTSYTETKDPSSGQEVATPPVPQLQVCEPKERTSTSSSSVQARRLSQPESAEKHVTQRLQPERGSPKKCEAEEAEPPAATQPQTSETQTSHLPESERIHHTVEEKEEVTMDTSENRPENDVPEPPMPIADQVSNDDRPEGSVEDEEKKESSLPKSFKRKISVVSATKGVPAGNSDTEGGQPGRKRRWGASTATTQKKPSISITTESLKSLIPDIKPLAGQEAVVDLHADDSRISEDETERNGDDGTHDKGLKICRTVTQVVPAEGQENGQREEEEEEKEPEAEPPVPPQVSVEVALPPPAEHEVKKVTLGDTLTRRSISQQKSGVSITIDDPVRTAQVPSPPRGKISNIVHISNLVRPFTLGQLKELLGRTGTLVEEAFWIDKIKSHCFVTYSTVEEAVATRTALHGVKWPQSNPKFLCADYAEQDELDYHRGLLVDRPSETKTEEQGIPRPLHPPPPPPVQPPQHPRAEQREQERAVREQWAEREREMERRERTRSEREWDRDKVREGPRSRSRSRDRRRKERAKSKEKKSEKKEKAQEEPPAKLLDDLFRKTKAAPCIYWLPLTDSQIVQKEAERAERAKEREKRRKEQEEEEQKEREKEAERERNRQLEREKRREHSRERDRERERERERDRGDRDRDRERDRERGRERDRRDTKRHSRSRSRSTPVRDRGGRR
# UniProt P35611: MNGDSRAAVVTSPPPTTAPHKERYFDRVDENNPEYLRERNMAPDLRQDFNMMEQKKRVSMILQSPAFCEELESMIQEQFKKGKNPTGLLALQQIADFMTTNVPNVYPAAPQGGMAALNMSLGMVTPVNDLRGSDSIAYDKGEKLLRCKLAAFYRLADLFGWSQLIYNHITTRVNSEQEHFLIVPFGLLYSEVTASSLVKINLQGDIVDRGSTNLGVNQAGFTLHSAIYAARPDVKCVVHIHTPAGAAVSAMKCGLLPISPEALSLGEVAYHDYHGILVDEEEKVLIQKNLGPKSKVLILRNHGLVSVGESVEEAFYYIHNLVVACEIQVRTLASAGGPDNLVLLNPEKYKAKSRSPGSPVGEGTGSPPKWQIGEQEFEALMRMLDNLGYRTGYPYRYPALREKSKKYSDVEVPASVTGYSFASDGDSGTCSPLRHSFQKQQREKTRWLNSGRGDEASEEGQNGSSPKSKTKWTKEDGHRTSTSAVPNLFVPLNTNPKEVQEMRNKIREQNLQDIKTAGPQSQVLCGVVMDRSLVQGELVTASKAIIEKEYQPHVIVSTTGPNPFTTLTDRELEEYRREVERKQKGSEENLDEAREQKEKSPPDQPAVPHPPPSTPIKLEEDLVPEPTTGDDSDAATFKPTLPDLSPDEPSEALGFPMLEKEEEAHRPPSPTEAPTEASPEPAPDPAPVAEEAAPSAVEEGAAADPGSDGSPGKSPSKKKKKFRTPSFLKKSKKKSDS
# UniProt Q9Y243: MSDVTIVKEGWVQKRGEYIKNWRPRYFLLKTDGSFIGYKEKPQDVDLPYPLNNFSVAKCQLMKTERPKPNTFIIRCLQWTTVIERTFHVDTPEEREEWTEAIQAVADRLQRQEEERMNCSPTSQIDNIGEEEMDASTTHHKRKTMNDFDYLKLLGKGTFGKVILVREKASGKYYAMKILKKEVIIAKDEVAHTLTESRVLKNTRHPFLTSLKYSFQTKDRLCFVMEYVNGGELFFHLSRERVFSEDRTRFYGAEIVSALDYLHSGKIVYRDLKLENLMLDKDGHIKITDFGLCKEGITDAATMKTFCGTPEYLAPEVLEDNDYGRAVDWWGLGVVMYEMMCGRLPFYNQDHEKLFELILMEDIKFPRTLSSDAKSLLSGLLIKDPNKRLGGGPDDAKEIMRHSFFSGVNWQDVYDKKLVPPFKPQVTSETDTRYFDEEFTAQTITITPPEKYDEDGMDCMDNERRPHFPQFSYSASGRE
# UniProt P07355, whole entry, looked up: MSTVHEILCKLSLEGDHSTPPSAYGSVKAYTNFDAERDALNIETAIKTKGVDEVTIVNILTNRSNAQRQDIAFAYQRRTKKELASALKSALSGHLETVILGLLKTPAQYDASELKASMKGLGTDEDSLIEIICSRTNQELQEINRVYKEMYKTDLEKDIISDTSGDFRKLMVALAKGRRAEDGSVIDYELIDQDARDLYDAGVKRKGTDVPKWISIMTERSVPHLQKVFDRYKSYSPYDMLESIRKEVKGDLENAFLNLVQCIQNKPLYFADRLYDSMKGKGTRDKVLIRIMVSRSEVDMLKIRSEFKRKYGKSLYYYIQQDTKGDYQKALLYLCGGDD
# ± gives the standard deviation of the averaged measurements. Repeats in this data set agree poorly, so a single value says little.
# Compound: T1, CC[C@@H](C)Nc1cc(C(=O)N[C@H]2C[C@H]3CC[C@@H](C2)N3c2ccc(C(=O)C3CC3)cn2)c(C)cc1C(N)=O [XL888]
# Assay: phosphopeptide melting temperature shift (XL888 minus DMSO); higher = stabilised by drug treatment
# Conditions: 100 µM; treatment time 2 h; layout: intact cells; SK-Mel 28
# Procedure: (§1)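 Phospho-TPP in intact SK-Mel 28 cells treated with 100 uM XL888 or DMSO for 2 h, heated at 10 temperatures (37-67 C) for 3 min, soluble fraction TMT10plex-labelled and TiO2 phospho-enriched. Melting curves were fitted per phosphopeptide; the value is the melting point difference (drug minus vehicle) in each of two biological replicates.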
row,Target,phosphopeptide melting temperature shift [°C]
1,UniProt Q92734-4_phosphosite_197 (phosphosite position: 197),-3.59
2,UniProt Q92754-2_phosphosite_265 (phosphosite position: 265),0.255
3,UniProt Q92769-3_phosphosite_392 (phosphosite position: 392),1.94
4,UniProt Q92769-3_phosphosite_394 (phosphosite position: 394),1.73
5,UniProt Q92878-3_phosphosite_496 (phosphosite position: 496),-0.889
6,UniProt Q92890_phosphosite_247 (phosphosite position: 247),0.77
7,UniProt Q92974-3_phosphosite_617 (phosphosite position: 617),1.3
8,UniProt Q92974-3_phosphosite_620 (phosphosite position: 620),2.2 ± 1.1
9,UniProt Q92974-3_phosphosite_904 (phosphosite position: 904),1.49 ± 0.42
10,UniProt Q92974-3_phosphosite_912 (phosphosite position: 912),5.04
11,UniProt Q92974-3_phosphosite_913 (phosphosite position: 913),2.33 ± 0.94
12,UniProt Q92974-3_phosphosite_932 (phosphosite position: 932),8
13,UniProt Q93008-1_phosphosite_1600 (phosphosite position: 1600),0.995 ± 0.5
14,UniProt Q93008-1_phosphosite_1609 (phosphosite position: 1609),0.656
15,UniProt Q93008-1_phosphosite_2547 (phosphosite position: 2547),3.51
16,UniProt Q93074-3_phosphosite_635 (phosphosite position: 635),2.04
17,UniProt Q99460-2_phosphosite_311 (phosphosite position: 311),-0.542 ± 1.9
18,UniProt Q99460-2_phosphosite_315 (phosphosite position: 315),-0.542 ± 1.9
19,UniProt Q99543-2_phosphosite_60 (phosphosite position: 60),0.576 ± 0.23
20,UniProt Q99543-2_phosphosite_63 (phosphosite position: 63),0.576 ± 0.23
21,UniProt Q99961-3_phosphosite_224 (phosphosite position: 224),-0.195
22,WDR11 phosphosite_208 (phosphosite position: 208) (UniProt Q9BZH6),2.38
23,WDR11 phosphosite_209 (phosphosite position: 209) (UniProt Q9BZH6),1.19 ± 1.3

# Some of the entries above, reformatted.
row	Target	phosphopeptide melting temperature shift [°C]
6	UniProt Q92890_phosphosite_247 (phosphosite position: 247)	0.77
7	UniProt Q92974-3_phosphosite_617 (phosphosite position: 617)	1.3

# An excerpt of these results, with bars between the fields.
row | Target | phosphopeptide melting temperature shift [°C]
3 | UniProt Q92769-3_phosphosite_392 (phosphosite position: 392) | 1.94
4 | UniProt Q92769-3_phosphosite_394 (phosphosite position: 394) | 1.73

# The list goes on.

row,Target,phosphopeptide melting temperature shift [°C]
1,WDR62 phosphosite_1228 (phosphosite position: 1228) (UniProt O43379),0.797
2,WWTR1 phosphosite_65 (phosphosite position: 65) (UniProt Q9GZV5),-0.486
3,WWTR1 phosphosite_66 (phosphosite position: 66) (UniProt Q9GZV5),-1.43
4,XPO1 phosphosite_391 (phosphosite position: 391) (UniProt O14980),1.61
5,XRCC1 phosphosite_453 (phosphosite position: 453) (UniProt P18887),0.0984 ± 0.92
6,YBX1 phosphosite_165 (phosphosite position: 165) (UniProt P67809),0.0955 ± 0.23
7,YBX1 phosphosite_167 (phosphosite position: 167) (UniProt P67809),-0.0272
8,YBX1 phosphosite_176 (phosphosite position: 176) (UniProt P67809),1.16
9,ZBTB7A phosphosite_549 (phosphosite position: 549) (UniProt O95365),2.2
10,ZC3H4 phosphosite_92 (phosphosite position: 92) (UniProt Q9UPT8),-0.0137
11,ZC3H4 phosphosite_94 (phosphosite position: 94) (UniProt Q9UPT8),-0.0137
12,ZC3H8 phosphosite_59 (phosphosite position: 59) (UniProt Q8N5P1),0.738
13,ZC3H11A phosphosite_758 (phosphosite position: 758) (UniProt O75152),6.45 ± 0.25
14,ZC3HC1 phosphosite_407 (phosphosite position: 407) (UniProt Q86WB0),-1.54
15,ZFP36L2 phosphosite_490 (phosphosite position: 490) (UniProt P47974),-2.9
16,ZFR phosphosite_1054 (phosphosite position: 1054) (UniProt Q96KR1),2.05 ± 0.98
17,ZFYVE16 phosphosite_142 (phosphosite position: 142) (UniProt Q7Z3T8),0.512
18,ZNF318 phosphosite_1243 (phosphosite position: 1243) (UniProt Q5VUA4),7.93 ± 1.8
19,ZNF579 phosphosite_483 (phosphosite position: 483) (UniProt Q8NAF0),0.926
20,ZNF609 phosphosite_491 (phosphosite position: 491) (UniProt O15014),4.49
21,ZNF652 phosphosite_100 (phosphosite position: 100) (UniProt Q9Y2D9),4.19 ± 1
22,ZNF652 phosphosite_103 (phosphosite position: 103) (UniProt Q9Y2D9),4.19 ± 1
23,ZNF800 phosphosite_595 (phosphosite position: 595) (UniProt Q2TB10),-1.5

# Compound: T1, XL888
# Assay: as above
# Conditions: 100 µM; treatment time 2 h; layout: intact cells; SK-Mel 24
# Procedure: as §1, with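 “24” for “28”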
row,Target,phosphopeptide melting temperature shift [°C]
1,ACIN1 phosphosite_216 (phosphosite position: 216) (UniProt Q9UKV3),3.87
2,ACIN1 phosphosite_729 (phosphosite position: 729) (UniProt Q9UKV3),2.45
3,ACLY phosphosite_481 (phosphosite position: 481) (UniProt P53396),-0.659
4,ACSS2 phosphosite_30 (phosphosite position: 30) (UniProt Q9NR19),-1.18
5,ACTR10 phosphosite_414 (phosphosite position: 414) (UniProt Q9NZ32),-1.29
6,ADD1 phosphosite_12 (phosphosite position: 12) (UniProt P35611),0.0536 ± 2.1
7,AHNAK phosphosite_5448 (phosphosite position: 5448) (UniProt Q09666),-3.18
8,AKR7A2 phosphosite_255 (phosphosite position: 255) (UniProt O43488),-1.17 ± 0.23
9,AKT3 phosphosite_447 (phosphosite position: 447) (UniProt Q9Y243),0.637
10,ALS2 phosphosite_466 (phosphosite position: 466) (UniProt Q96Q42),0.402
11,ANKS1A phosphosite_626 (phosphosite position: 626) (UniProt Q92625),0.994
12,ANKS1A phosphosite_677 (phosphosite position: 677) (UniProt Q92625),-1.41
13,ANKZF1 phosphosite_56 (phosphosite position: 56) (UniProt Q9H8Y5),1.01
14,ANXA2 phosphosite_18 (phosphosite position: 18) (UniProt P07355),0.552
15,ANXA2 phosphosite_19 (phosphosite position: 19) (UniProt P07355),-0.0348 ± 0.078
16,ANXA2 phosphosite_24 (phosphosite position: 24) (UniProt P07355),0.135
17,ARFGAP1 phosphosite_189 (phosphosite position: 189) (UniProt Q8N6T3),-0.27
18,ARGLU1 phosphosite_77 (phosphosite position: 77) (UniProt Q9NWB6),1.28
19,ARHGEF11 phosphosite_1480 (phosphosite position: 1480) (UniProt O15085),-1.11
20,BAD phosphosite_118 (phosphosite position: 118) (UniProt Q92934),6.22
21,BAIAP2L1 phosphosite_414 (phosphosite position: 414) (UniProt Q9UHR4),3.24
22,BNIP2 phosphosite_114 (phosphosite position: 114) (UniProt Q12982),0.0841 ± 0.16
23,BRD4 phosphosite_601 (phosphosite position: 601) (UniProt O60885),-0.82
